# Measured values taken from PMC6768852.
# Chains of the proteins cited; added tags and fusions are not shown. Residues count along the entry.
# UniProt Q9Y6M1, 425-581: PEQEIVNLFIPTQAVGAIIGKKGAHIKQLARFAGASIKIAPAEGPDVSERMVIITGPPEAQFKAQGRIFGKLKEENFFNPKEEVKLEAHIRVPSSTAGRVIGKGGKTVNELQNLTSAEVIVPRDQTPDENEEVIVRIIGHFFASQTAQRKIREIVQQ
# How the values were obtained:
# IMP2 KH3 VL MUT (KH34) = assay: EMSA; conditions: EMSA: 100 pM RNA, 10 mM Tris, 100 mM NaCl, 0.1 mM EDTA, 0.01 mg/mL tRNA, 50 ug/mL heparin, 0.01% IGEPAL CA630, room temperature, 3 h, pH not stated, recombinant protein
# IMP2 KH34 = IMP2 KH34 (UniProt Q9Y6M1); assay: EMSA; conditions: EMSA: 100 pM RNA, 10 mM Tris, 100 mM NaCl, 0.1 mM EDTA, 0.01 mg/mL tRNA, 50 ug/mL heparin, 0.01% IGEPAL CA630, room temperature, 3 h, pH not stated, recombinant protein, protein details: MBP
# [1] = letters put together from the description
Sequence,binding result (IMP2 KH3 VL MUT (KH34)),binding result (IMP2 KH34),binding result (IMP2 KH34; [1]),binding result (IMP2 KH3 VL MUT (KH34); permissive except for G)
ACCUGACUGUUACCAACACCCACACCCC [C28 G4U],no binding,,,
ACCGGCCUGUUACCAACACCCACACCCC [C28 A6C],binds,no binding,,
ACUGGACUGUUACCAACACCCACACCCC [C28 C3U],binds,no binding,,
ACCGAACUGUUACCAACACCCACACCCC [C28 G5A],no binding,,,
ACCAGACUGUUACCAACACCCACACCCC [C28 G4A],no binding,,,
GGGCGGAGCGACGCAGUUUAGCGGCCUCAGCGAACCCUUUGGAACACUUCUC [SELEX RNA #1 CA mutant],,,no binding,
GGGCAGAGCGACGCAGUUUAGCGGCCUCAGCGAACCCUUUAAAACACUUCUC [SELEX RNA #1 GG mutant],,,no binding,
ACGGGACUGUUACCAACACCCACACCCC [C28 C3G],,no binding,,no binding
ACAGGACUGUUACCAACACCCACACCCC [C28 C3A],binds,no binding,,
ACCCGACUGUUACCAACACCCACACCCC [C28 G4C],no binding,,,
ACCGUACUGUUACCAACACCCACACCCC [C28 G5U],no binding,,,
ACCGCACUGUUACCAACACCCACACCCC [C28 G5C],no binding,,,
ACCGGGCUGUUACCAACACCCACACCCC [C28 A6G],,no binding,,no binding
ACCGGUCUGUUACCAACACCCACACCCC [C28 A6U],binds,no binding,,

# Construct, isoform or probe ends are uncertain for at least one entry. Negatives hold for the conditions tested. At least one verdict rests on a figure or table, not on a statement of the authors.
